Source: the supplement of paper PMC12819154, “High-throughput peptide-centric local stability assay extends protein–ligand identification to membrane proteins, tissues and bacteria” (Nature Structural & Molecular Biology, 2025)
The list shows a part of the results. Most entries show no effect beyond the scatter of the controls.

Amino acid sequences for entries named in this document (tags omitted). A change or cut given only in a name is not applied to a line headed by its entry.
UniProt Q9HAY2: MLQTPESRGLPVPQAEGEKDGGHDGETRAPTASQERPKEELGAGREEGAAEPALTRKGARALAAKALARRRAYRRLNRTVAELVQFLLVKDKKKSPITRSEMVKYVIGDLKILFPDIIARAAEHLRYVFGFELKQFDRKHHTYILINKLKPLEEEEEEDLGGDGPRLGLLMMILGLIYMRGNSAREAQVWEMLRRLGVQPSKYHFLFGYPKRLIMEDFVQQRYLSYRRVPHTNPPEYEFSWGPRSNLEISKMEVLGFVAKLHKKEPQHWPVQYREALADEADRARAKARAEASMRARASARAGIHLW
UniProt Q9H307: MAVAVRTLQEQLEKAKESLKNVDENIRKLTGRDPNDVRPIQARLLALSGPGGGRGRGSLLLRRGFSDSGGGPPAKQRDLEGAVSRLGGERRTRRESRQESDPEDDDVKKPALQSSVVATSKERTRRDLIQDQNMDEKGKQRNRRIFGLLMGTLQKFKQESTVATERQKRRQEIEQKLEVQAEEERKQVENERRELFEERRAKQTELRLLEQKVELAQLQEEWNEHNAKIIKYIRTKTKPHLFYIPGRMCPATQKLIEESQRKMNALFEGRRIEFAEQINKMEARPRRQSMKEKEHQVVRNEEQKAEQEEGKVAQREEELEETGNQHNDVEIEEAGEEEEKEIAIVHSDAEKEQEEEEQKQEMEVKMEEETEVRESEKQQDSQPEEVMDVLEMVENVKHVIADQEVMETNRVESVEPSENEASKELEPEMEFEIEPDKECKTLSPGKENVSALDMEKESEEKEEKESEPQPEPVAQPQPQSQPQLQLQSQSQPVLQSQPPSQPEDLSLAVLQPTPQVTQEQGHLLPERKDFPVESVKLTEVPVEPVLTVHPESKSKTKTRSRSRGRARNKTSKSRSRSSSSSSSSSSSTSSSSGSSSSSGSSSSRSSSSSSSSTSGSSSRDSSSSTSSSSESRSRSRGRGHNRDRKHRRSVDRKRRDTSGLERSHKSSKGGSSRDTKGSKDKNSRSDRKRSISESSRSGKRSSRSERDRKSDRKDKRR
UniProt Q9HAH7: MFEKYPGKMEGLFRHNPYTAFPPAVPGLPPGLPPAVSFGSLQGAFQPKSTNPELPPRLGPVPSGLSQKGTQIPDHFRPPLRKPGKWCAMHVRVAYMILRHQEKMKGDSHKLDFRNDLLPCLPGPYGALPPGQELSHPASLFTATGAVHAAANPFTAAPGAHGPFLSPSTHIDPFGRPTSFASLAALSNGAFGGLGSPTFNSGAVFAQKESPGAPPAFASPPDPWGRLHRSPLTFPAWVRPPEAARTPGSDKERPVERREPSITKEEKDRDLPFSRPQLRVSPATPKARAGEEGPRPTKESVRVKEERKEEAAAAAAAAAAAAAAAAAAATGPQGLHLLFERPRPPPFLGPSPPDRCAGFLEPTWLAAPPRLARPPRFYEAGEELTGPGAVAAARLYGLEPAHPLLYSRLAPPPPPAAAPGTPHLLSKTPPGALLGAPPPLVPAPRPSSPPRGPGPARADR
UniProt Q9H9S3, whole entry: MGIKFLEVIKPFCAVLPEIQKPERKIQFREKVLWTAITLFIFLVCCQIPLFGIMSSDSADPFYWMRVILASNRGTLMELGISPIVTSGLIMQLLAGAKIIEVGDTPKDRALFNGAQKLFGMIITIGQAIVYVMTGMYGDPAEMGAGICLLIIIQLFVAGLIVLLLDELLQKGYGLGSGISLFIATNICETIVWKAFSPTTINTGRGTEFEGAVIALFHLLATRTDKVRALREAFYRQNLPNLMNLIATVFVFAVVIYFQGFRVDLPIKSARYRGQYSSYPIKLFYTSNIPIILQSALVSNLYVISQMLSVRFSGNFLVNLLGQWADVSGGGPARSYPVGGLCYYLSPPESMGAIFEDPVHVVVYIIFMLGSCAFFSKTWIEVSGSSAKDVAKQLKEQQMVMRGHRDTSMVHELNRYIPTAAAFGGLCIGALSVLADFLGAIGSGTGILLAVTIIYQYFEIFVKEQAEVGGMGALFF
UniProt Q9H2K0, whole entry, looked up: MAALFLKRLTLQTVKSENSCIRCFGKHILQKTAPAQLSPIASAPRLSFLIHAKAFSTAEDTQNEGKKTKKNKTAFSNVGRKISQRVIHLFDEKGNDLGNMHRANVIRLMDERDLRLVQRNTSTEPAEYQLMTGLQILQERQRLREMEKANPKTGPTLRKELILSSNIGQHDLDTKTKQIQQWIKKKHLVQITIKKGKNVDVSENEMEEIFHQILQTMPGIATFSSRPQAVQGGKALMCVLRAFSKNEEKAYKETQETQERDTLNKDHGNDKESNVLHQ
UniProt Q9HB09: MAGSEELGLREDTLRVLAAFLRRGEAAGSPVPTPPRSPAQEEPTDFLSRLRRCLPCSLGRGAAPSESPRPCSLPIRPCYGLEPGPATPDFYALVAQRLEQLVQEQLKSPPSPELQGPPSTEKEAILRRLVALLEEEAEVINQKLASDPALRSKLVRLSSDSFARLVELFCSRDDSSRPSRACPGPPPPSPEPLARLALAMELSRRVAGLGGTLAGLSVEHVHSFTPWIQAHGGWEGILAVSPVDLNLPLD
UniProt Q9HB75: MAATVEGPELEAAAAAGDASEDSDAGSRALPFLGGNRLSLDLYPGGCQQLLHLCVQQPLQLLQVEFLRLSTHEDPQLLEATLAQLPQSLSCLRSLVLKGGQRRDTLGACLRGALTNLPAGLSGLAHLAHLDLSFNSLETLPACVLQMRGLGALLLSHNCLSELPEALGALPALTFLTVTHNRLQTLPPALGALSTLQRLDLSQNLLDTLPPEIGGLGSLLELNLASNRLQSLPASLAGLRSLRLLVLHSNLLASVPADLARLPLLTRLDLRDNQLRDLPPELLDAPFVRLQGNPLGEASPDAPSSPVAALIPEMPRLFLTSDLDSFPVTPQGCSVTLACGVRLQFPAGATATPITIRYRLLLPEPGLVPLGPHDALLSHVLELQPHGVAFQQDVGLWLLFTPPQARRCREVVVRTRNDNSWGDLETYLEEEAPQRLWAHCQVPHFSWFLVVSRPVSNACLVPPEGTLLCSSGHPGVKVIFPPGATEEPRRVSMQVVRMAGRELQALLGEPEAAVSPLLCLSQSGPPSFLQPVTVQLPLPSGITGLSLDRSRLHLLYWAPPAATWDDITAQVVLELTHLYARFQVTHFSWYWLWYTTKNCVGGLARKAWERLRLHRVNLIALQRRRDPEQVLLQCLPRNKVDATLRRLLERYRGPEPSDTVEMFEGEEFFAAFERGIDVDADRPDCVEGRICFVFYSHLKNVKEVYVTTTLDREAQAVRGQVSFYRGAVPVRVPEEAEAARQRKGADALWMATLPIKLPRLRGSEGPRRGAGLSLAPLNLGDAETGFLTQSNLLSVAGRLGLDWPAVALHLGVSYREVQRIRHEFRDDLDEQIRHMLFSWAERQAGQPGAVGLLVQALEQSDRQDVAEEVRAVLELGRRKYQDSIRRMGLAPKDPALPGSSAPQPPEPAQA
UniProt Q9H9Q2: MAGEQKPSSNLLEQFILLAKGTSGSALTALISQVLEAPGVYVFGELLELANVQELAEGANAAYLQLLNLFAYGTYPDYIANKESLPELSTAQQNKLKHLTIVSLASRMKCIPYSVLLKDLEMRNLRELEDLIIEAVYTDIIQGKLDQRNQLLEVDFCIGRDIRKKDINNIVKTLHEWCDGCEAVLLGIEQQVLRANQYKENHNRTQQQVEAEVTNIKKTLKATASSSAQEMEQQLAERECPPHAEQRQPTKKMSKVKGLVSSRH
UniProt Q9H857: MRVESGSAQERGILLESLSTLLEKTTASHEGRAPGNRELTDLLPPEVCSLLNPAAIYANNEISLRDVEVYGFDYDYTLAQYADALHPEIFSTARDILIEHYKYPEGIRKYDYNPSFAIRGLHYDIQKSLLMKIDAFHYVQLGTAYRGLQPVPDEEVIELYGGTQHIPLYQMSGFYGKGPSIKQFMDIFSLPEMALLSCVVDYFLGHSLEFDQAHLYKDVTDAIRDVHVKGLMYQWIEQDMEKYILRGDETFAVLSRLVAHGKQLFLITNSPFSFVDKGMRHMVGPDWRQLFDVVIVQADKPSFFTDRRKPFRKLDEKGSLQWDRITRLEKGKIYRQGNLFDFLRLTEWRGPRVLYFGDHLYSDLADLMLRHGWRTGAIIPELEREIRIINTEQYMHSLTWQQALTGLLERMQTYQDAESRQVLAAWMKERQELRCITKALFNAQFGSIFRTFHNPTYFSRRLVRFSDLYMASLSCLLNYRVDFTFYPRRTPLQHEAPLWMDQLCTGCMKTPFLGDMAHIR
UniProt Q9H7E9: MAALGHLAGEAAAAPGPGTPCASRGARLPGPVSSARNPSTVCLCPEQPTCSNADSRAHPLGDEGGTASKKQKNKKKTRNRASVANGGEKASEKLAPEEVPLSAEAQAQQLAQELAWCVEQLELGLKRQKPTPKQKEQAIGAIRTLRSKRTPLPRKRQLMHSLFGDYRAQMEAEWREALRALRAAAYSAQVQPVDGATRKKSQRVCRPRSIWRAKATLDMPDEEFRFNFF

Compound: Cc1nc(Nc2ncc(C(=O)Nc3c(C)cccc3Cl)s2)cc(N2CCN(CCO)CC2)n1 [dasatinib]
Test: log2 fold change of tryptic peptide abundance, ligand vs vehicle (limited proteolysis) (log2 ratio); higher = more trypsin-susceptible (destabilized)
Details: ligand concentration: 5 uM; sample: K562 cleared lysate

Row | Target | log2 fold change
1 | MAGEF1 (peptide sequence: ILFPDIIAR, peptide start residue: 112) (UniProt Q9HAY2) | 0.2
2 | PNN (peptide sequence: TLQEQLEK, peptide start residue: 7) (UniProt Q9H307) | -0.142
3 | UniProt Q9H320 (peptide sequence: KSSSQPSPSDPK, peptide start residue: 21) | 0.079
4 | UniProt Q9HAH7 (peptide sequence: GTQIPDHFRPPLR, peptide start residue: 69) | -0.195
5 | SEC61A2 (peptide sequence: EQQMVMR, peptide start residue: 396) (UniProt Q9H9S3) | 0.0418
6 | MTIF3 (peptide sequence: DTLNKDHGNDKESNVLHQ, peptide start residue: 261) (UniProt Q9H2K0) | 0.264
7 | BCL2L12 (peptide sequence: LEQLVQEQLK, peptide start residue: 182) (UniProt Q9HB09) | 0.0822
8 | PIDD1 (peptide sequence: VNLIALQR, peptide start residue: 616) (UniProt Q9HB75) | 0.178
9 | COPS7B (peptide sequence: HLTIVSLASR, peptide start residue: 98) (UniProt Q9H9Q2) | -0.213
10 | NT5DC2 (peptide sequence: DILIEHYK, peptide start residue: 95) (UniProt Q9H857) | 0.359
11 | C8orf33 (peptide sequence: AKATLDMPDEEFR, peptide start residue: 213) (UniProt Q9H7E9) | -0.192

Exported in markdown: part of the list above.

| Row | Target | log2 fold change |
| --- | --- | --- |
| 10 | NT5DC2 (peptide sequence: DILIEHYK, peptide start residue: 95) (UniProt Q9H857) | 0.359 |
| 11 | C8orf33 (peptide sequence: AKATLDMPDEEFR, peptide start residue: 213) (UniProt Q9H7E9) | -0.192 |
